# Assay results published in the supplement of paper PMC6143611.
# Structures can show the parent of a compound that is named as a salt. ± gives the uncertainty stated by the source. The list shows a part of the results. Baselines shift from plate to plate; read single values as rough.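 Larvae carried a heat-shock-induced fluorescent stripe in rod outer segments, set at 6 dpf; the shedding distance runs from this stripe to the outer segment tip, measured in confocal stacks, about three fish per compound. The controls got 0.2% DMSO vehicle, and the paper flagged compounds with at least a 20% change against the same-week control and p < 0.001 (Dunnett test on mixed-effects models).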
# Test system: Danio rerio larva rod photoreceptor outer segment
# Test: rod outer segment growth distance Dg, difference from same-week DMSO control mean; higher = more outer segment growth
# Settings: 20 µM; treatment time: 4 days (6-10 dpf)
row,Structure (SMILES),rod outer segment growth distance Dg [um]
1,C[C@H]1C[C@H]2[C@@H]3CCC4=CC(=O)C=C[C@]4(C)[C@H]3C(=O)C[C@]2(C)[C@@]1(O)C(=O)CO [Meprednisone],0.46 ± 0.2
2,CC(C(=O)O)c1ccc(C(=O)c2cccs2)cc1 (stereo not drawn) [Suprofen],-0.15 ± 0.21
3,Cc1ccc(-c2c(-c3nn(C)c4ncnc(N5CC[C@H](N6CCCCC6)C5)c34)cnn2C)cc1,-0.44 ± 0.18
4,"COc1cc2c(cc1Cc1cccc(Cl)c1F)c(=O)c(C(=O)O)cn2[C@H](CO)C(C)C [Elvitegravir (GS-9137, JTK-303)]",-1.07 ± 0.23
5,NC(=O)c1ncn([C@@H]2O[C@H](CO)[C@@H](O)[C@H]2O)n1 [Ribavirin],0.08 ± 0.23
6,CCCCC(=O)N(Cc1ccc(-c2ccccc2-c2nnn[nH]2)cc1)[C@H](C(=O)O)C(C)C [Valsartan],1.03 ± 0.2
7,O=[N+]([O-])c1cn2c(n1)OC[C@@H](OCc1ccc(OC(F)(F)F)cc1)C2,-0.64 ± 0.33
8,Cc1cccc(-c2nn3c(c2-c2ccnc4ccc(C(N)=O)cc24)CCC3)n1,-0.26 ± 0.24
9,CCN(CC)CC(=O)Nc1c(C)cccc1C [Lidocaine],-0.28 ± 0.32
10,N[C@@]1(C(=O)O)CS(=O)(=O)[C@H]2[C@H](C(=O)O)[C@H]21,0.08 ± 0.14
11,COc1nc(C)nc(Cl)c1NC1=NCCN1 [Moxonidine],0.32 ± 0.24
12,CCOC(=O)[C@H](CCc1ccccc1)N[C@@H](C)C(=O)N1[C@H](C(=O)O)C[C@@H]2CCC[C@@H]21 [Ramipril],0.27 ± 0.21
13,CS(=O)(=O)CCNCc1ccc(-c2ccc3ncnc(Nc4ccc(OCc5cccc(F)c5)c(Cl)c4)c3c2)o1,-0.15 ± 0.19
14,CCCOc1ccc(C(=O)OCCN(CC)CC)cc1N [Proparacaine HCl],0.98 ± 0.28
15,O=C(Nc1cccc(Cl)c1)c1ccccn1,-0.95 ± 0.18
16,"CO[C@H]1C[C@@H]2CC[C@@H](C)[C@@](O)(O2)C(=O)C(=O)N2CCCC[C@H]2C(=O)O[C@H]([C@H](C)C[C@@H]2CC[C@@H](OP(C)(C)=O)[C@H](OC)C2)CC(=O)[C@H](C)/C=C(\C)[C@@H](O)[C@@H](OC)C(=O)[C@H](C)C[C@H](C)/C=C/C=C/C=C/1C [Ridaforolimus (Deforolimus, MK-8669)]",-0.23 ± 0.19
17,Cc1cc(C(C)(C)C)c(O)c(C)c1CC1=NCCN1 [Oxymetazoline HCl],0.26 ± 0.27
18,COCCOc1ccc2c(c1)ncn2-c1ccc2cccc(N3CCC(N)CC3)c2n1,-1.62 ± 0.2
19,Nc1ccc(O)c(C(=O)O)c1 [Mesalamine],-0.24 ± 0.19

# Part of the list above, with bars between the fields.
row | Structure (SMILES) | rod outer segment growth distance Dg [um]
2 | CC(C(=O)O)c1ccc(C(=O)c2cccs2)cc1 (stereo not drawn) [Suprofen] | -0.15 ± 0.21
9 | CCN(CC)CC(=O)Nc1c(C)cccc1C [Lidocaine] | -0.28 ± 0.32

# (cont.)

row,Structure (SMILES),rod outer segment growth distance Dg [um]
1,CNC(=O)c1cccc(-c2ccc3c(N4CCOC[C@@H]4C)nc(N4CCOC[C@@H]4C)nc3n2)c1,-1.38 ± 0.15
2,O=c1c(-c2ccc(O)cc2)coc2cc(O)ccc12 [Daidzein],-0.92 ± 0.18
3,O=C(O)/C=C/c1ccc(O)c(O)c1 [Caffeic Acid],-0.77 ± 0.41
4,CCCC(CCC)C(=O)O [Divalproex Sodium],0.68 ± 0.29
5,COc1ccc(S(=O)(=O)Nc2cccnc2Nc2ccc(O)cc2)cc1,-1.8 ± 0.24
6,CCN1CCN(c2cc3c(cc2F)c(=O)c(C(=O)O)cn3C2CC2)CC1 [Enrofloxacin],1.38 ± 0.13
7,NC(=O)c1cccc(-c2cccc(OC(=O)NC3CCCCC3)c2)c1,0.22 ± 0.17
8,CC1(C)O[C@@H]2C[C@H]3[C@@H]4CCC5=CC(=O)C=C[C@]5(C)[C@H]4[C@@H](O)C[C@]3(C)[C@]2(C(=O)CO)O1 [Desonide],0.05 ± 0.29
9,CCOC(=O)c1ccc(N2NC(=O)C(=Cc3ccc([N+](=O)[O-])o3)C2=O)cc1,-0.87 ± 0.2
10,Cc1onc(-c2ccccc2Cl)c1C(=O)N[C@@H]1C(=O)N2[C@@H]1SC(C)(C)[C@@H]2C(=O)O [Cloxacillin Sodium],-0.76 ± 0.24
11,O=C(O)C1=C[C@@H](O)[C@@H](O)[C@H](O)C1 [Shikimic Acid],0.37 ± 0.24
12,CC1=CC(=O)NS(=O)(=O)O1 [Acesulfame Potassium],1.04 ± 0.2
13,CC[C@]1(O)C[C@H]2CN(CCc3c([nH]c4ccccc34)[C@@](C(=O)OC)(c3cc4c(cc3OC)N(C=O)[C@H]3[C@@](O)(C(=O)OC)[C@H](OC(C)=O)[C@]5(CC)C=CCN6CC[C@]43[C@@H]65)C2)C1 [Vincristine],-0.55 ± 0.21
14,CN(C)C(=O)C(CCN1CCC(O)(c2ccc(Cl)cc2)CC1)(c1ccccc1)c1ccccc1 [Loperamide HCl],0.99 ± 0.3
15,COc1cccc(Nc2c(C(N)=O)cnc3c(C)cc(S(=O)(=O)c4cccc(C(=O)N(C)C)c4)cc23)c1,-0.49 ± 0.18
16,C=C[C@H]1CN2CC[C@H]1C[C@H]2[C@H](O)c1ccnc2ccc(OC)cc12 [Quinine HCl Dihydrate],0.66 ± 0.29
17,Cc1nnc(NS(=O)(=O)c2ccc(N)cc2)s1 [Sulfamethizole],0.23 ± 0.34
18,CO[C@H]1/C=C/O[C@@]2(C)Oc3c(C)c(O)c4c(O)c(c(/C=N/N5CCN(C)CC5)c(O)c4c3C2=O)NC(=O)/C(C)=C\C=C\[C@H](C)[C@H](O)[C@@H](C)[C@@H](O)[C@@H](C)[C@H](OC(C)=O)[C@@H]1C [Rifampin],0 ± 0.2
19,COc1nc(C)cnc1NS(=O)(=O)c1cccnc1-c1ccc(-c2nnco2)cc1 [Zibotentan (ZD4054)],-0.15 ± 0.17
